# Data published in patent US20170306017A1.
# Chains of the proteins cited; added tags and fusions are not shown. Lines headed by an entry give the natural chain unless they say otherwise; changes in a name come on top. Residues count along the entry.
# UniProt O43157, residues 20-2135: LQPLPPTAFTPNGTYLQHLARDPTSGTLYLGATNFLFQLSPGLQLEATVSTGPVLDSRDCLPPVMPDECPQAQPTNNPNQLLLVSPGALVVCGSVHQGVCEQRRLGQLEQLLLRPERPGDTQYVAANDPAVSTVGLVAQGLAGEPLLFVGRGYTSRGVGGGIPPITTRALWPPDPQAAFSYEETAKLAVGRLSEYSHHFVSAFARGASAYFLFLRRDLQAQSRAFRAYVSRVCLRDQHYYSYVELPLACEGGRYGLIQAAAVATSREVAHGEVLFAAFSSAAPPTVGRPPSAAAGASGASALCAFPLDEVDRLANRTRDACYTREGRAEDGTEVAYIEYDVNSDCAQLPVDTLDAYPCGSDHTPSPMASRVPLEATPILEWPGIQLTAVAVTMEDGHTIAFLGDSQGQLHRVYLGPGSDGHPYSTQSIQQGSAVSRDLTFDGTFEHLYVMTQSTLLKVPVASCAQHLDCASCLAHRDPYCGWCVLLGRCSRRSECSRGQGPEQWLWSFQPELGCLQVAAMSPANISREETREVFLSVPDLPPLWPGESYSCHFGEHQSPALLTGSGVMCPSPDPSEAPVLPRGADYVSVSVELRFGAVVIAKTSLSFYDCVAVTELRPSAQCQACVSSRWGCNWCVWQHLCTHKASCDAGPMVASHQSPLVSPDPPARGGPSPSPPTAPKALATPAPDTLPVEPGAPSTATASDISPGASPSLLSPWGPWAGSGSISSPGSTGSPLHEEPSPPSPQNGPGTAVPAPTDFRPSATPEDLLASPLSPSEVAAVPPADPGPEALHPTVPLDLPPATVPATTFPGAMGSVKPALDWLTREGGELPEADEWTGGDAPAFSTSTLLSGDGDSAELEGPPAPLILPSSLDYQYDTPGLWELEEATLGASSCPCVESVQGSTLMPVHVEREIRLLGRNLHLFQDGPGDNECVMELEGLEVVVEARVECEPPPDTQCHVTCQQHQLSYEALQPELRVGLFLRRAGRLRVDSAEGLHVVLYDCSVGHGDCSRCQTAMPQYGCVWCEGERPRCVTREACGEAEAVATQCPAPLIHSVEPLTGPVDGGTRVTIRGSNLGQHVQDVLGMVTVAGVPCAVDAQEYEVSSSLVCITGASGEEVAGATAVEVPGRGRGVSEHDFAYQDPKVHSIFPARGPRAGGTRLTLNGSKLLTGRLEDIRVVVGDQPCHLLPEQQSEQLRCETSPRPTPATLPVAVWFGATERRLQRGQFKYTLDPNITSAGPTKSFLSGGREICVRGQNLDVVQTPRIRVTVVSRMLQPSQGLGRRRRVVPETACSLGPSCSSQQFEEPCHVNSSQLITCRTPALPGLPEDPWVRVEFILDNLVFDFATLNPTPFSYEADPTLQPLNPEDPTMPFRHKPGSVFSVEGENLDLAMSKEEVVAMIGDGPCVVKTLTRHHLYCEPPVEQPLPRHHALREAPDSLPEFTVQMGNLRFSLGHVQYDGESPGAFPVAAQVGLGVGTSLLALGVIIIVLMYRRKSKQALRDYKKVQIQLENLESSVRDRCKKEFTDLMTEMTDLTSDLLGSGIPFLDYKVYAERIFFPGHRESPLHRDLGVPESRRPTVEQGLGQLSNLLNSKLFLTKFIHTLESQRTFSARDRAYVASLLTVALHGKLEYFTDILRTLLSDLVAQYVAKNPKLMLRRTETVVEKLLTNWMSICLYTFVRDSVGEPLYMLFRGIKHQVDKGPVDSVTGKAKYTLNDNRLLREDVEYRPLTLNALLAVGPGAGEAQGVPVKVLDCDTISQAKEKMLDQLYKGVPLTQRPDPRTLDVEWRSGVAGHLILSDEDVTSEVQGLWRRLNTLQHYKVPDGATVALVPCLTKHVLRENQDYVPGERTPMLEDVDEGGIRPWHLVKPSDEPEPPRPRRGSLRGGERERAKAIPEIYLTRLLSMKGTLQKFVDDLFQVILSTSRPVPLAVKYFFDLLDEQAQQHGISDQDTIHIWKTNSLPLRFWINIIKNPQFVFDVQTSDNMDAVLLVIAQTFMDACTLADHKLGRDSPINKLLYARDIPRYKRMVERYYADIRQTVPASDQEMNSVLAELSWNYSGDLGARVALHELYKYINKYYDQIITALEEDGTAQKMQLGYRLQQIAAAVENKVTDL
# UniProt Q92854: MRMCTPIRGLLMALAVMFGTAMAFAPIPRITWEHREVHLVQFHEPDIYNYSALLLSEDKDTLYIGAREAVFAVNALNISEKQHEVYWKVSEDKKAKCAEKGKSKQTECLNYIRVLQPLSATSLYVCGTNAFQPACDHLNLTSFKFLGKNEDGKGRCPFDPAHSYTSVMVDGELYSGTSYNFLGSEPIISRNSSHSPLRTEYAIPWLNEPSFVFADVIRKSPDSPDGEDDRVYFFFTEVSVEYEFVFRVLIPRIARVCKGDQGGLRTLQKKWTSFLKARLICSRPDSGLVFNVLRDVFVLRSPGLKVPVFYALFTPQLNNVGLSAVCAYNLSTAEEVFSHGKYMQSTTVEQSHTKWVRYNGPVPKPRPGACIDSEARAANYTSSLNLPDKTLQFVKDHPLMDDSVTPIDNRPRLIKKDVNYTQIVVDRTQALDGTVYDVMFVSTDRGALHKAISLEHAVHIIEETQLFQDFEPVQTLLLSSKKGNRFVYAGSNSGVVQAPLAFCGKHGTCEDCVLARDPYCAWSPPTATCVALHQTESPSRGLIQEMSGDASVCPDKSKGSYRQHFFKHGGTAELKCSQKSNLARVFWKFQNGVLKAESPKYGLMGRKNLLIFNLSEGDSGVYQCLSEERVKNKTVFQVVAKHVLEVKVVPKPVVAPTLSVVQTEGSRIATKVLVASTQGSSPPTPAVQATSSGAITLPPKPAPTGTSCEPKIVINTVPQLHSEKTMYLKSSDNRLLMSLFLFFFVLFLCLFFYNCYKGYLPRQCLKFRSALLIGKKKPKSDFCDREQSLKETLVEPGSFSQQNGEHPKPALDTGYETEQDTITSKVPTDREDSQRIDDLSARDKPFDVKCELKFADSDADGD
# These are yes or no findings as the source states them, for the method shown. Some results given as binding are weak or reduced against the parent protein; the word gives no strength.
# Key:
# [1] = target: Plexin B1 on the cell surface of a stable 293 cell line (293/Plexin) (UniProt O43157); assay: flow cytometry on 293/Plexin cells (blocking assay of FIG. 1); bound CD100-His detected with biotinylated anti-His and streptavidin-APC
# [2] = target: Plexin B1 on the cell surface of a stable 293 cell line (293/Plexin) (UniProt O43157); assay: flow cytometry on 293/Plexin cells (blocking assay of FIG. 1); bound CD100 detected with biotinylated anti-His and streptavidin-APC
substance,measurement,setting,value
human CD100-His (C-terminal His tag) (from UniProt Q92854 22-734) (ligand),binding,[1],binds
marmoset CD100 (from UniProt A0A8I3W811 22-734) (ligand),binding,[2],binds
